This note sets out measurements from paper PMC8115349.

Sequences of proteins named here, by UniProt entry; tags and fusion partners are left off. A change or cut given only in a name is not applied to a line headed by its entry.
UniProt Q13546: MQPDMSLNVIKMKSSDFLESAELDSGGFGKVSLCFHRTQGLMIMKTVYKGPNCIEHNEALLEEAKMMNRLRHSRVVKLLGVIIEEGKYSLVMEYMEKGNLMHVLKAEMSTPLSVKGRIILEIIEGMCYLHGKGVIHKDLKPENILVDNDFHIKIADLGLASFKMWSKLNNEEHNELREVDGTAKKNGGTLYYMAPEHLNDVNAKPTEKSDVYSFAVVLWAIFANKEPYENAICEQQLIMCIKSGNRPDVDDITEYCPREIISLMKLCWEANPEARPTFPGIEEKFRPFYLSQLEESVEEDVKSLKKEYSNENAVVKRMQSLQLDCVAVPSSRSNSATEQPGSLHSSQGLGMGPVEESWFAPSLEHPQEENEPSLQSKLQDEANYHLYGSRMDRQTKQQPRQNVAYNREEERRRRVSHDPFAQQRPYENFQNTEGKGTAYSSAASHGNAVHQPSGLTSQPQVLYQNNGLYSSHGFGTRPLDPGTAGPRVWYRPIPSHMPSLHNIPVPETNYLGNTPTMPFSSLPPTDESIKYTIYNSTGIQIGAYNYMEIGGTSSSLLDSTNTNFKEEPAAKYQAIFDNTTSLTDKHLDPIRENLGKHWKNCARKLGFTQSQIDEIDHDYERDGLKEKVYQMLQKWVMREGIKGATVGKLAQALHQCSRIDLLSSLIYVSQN

Assay [1] deals with T1, AQP1-3×FLAG (human) (UniProt P29972).
T1 sequence: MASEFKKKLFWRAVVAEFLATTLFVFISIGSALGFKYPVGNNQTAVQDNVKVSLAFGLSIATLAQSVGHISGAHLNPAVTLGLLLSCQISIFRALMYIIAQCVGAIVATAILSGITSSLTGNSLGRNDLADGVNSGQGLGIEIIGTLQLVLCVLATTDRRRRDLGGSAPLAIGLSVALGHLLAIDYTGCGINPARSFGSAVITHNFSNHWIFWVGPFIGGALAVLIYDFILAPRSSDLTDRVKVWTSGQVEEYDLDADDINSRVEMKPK
Briefly: co-IP; co-immunoprecipitation of FLAG from HEK-293T cells expressing AQP1-3×FLAG and RIPK1 or a point mutant; RIPA lysis buffer, protein G agarose beads, overnight at 4 °C; Western blot. For orientation: In western blotting, separated proteins are transferred to a membrane and probed.

Assay [2] addresses receptor-interacting protein kinase 1 (human (endogenous in TNBC tumor tissue)) (UniProt Q13546). Put plainly: co-IP; co-immunoprecipitation of RIPK1 from RIPA lysates of TNBC tissue; antibody coupled to protein G agarose beads, overnight at 4 °C; Western blot.

No constants are given. Whether binding was seen depends on the method and setting. Binding seen in cells or lysates may run through a third protein. Some results given as binding are weak or reduced against the parent protein; the word gives no strength. For some assays here: Sequences can lack the tags named with a protein.

Turning to “RIPK1 (wild type, expressed from plasmid) (from UniProt Q13546-1 1-671)”, the binding result in assay [1] is listed as “binds”.

B1: Aquaporin 1 (protein, UniProt P29972 1-269)
chain: T1 sequence
As for B1, the binding result in assay [2] is “binds”.
